Consider 23 molecules from PubChem BioAssay AID330 (DTP/NCI, 2004).

The list is a part of this screen's results and no random one: it is rich in T/C values a quarter to a half above the control, in often repeated tests (any T/C) and in doses without a T/C. Other doses and runs of a compound stand elsewhere. T/C gives the treated animals as a percentage of the vehicle group. Some doses have a count of surviving animals in place of a T/C: the source files T/C as zero there, which appears to mark a toxic dose or a test without result, not a measured value. Some survivor counts are full or nearly so, which does not show that the dose was tolerated: the source hardly ever lists a survival T/C far under the control, and the zero likely stands for such cases as well. Counts of survivors are from the toxicity check (mostly the fifth day) where no day follows; animals may have died later. Schedule codes are those of the source, read here as Q, the interval in days (D) or hours (H), X, the number of doses. Some doses were run more than once; their values stand side by side, smallest first. Where survival is the endpoint, the PubChem record calls one and a half times the control and up active, and a quarter to a half above the control has no call in these data; cut-offs in other NCI protocols can differ. Some T/C values carry the count of animals alive at the toxicity check (mostly the fifth day); without a count, all were alive then.

The test system of this assay is P388 leukemia ip, CD2F1 mice, survival T/C. In words: NCI In Vivo Anticancer Drug Screen. Data for tumor model P388 Leukemia (intraperitoneal) in CD2F1 (CDF1) mice. The conditions noted are these: T/C endpoint: median survival time, higher T/C = longer survival.
The mark [1] stands for this setting: dose: 400.0 mg/kg/injection, schedule: Q04DX003 (ip), vehicle: saline with Tween-80.
Setting [2] is: dose: 200.0 mg/kg/injection, schedule: Q01DX009 (ip), vehicle: saline.
The mark [3] stands for this setting: dose: 50.0 mg/kg/injection, schedule: Q01DX009 (ip), vehicle: saline with Tween-80.
Setting [4] is: dose: 50.0 mg/kg/injection, schedule: Q01DX005 (ip), vehicle: saline with Tween-80.
[5] abbreviates: dose: 100.0 mg/kg/injection, schedule: Q01DX005 (ip), vehicle: saline with Tween-80.
The mark [6] stands for this setting: dose: 1.0 mg/kg/injection, schedule: Q01DX009 (ip), vehicle: saline + alcohol.

For `C=CCn1/c(=N\NC(=O)c2ccncc2)sc2ccccc21`, the survivor count by setting is: (dose: 50.0 mg/kg/injection, schedule: Q01DX009 (ip), vehicle: Klucel (hydroxypropylcellulose) (HPC)) 6 of 6; (dose: 100.0 mg/kg/injection, schedule: Q01DX009 (ip), vehicle: Klucel (hydroxypropylcellulose) (HPC)) 6 of 6; (dose: 200.0 mg/kg/injection, schedule: Q01DX009 (ip), vehicle: Klucel (hydroxypropylcellulose) (HPC)) 6 of 6.

`O=S(O)CCCCSSCC(O)CO` (centres undefined): the T/C (dose: 100.0 mg/kg/injection, schedule: Q01DX005 (ip), vehicle: saline) was 128 % of control.

As for `Nc1nc(N)c2nc(SCc3ccc(Cl)cc3)c(N)nc2n1`, the survivor count (dose: 60.0 mg/kg/injection, schedule: Q01DX005 (ip), vehicle: Klucel (hydroxypropylcellulose) (HPC)) is given as 6 of 6.

For `Cc1ccc2c3nc4ccccc4c-3csc2c1`, the survivor count (dose: 40.0 mg/kg/injection, schedule: Q01DX009 (ip), vehicle: saline) is 6 of 6.

Regarding `C=C(C#N)CCl`, the survivor count (dose: 100.0 mg/kg/injection, schedule: Q01DX001 (ip), vehicle: saline with Tween-80) is 1 of 6 and 1 of 3; the survivor count (dose: 200.0 mg/kg/injection, schedule: Q01DX001 (ip), vehicle: saline with Tween-80) is on record as 0 of 6; the survivor count (dose: 400.0 mg/kg/injection, schedule: Q01DX001 (ip), vehicle: saline with Tween-80) is 0 of 6.

Take `CCCCCCCC(=O)Nc1cccc(C)c1C`: under setting [1], the survivor count is on record as 5 of 6.

Consider `CC(C)NCC(O)COc1ccc(O)c(O)c1` (centres undefined), for which the T/C by setting is: (dose: 50.0 mg/kg/injection, schedule: Q01DX009 (ip), vehicle: saline) 131 % of control; under setting [2], 125 % of control [5 of 6 alive].

On to `CNC(=O)OCc1c(COC(=O)NC)c(-c2c(F)cccc2F)n2c1CCC2`, for which the T/C is 148 % of control (dose: 3.13 mg/kg/injection, schedule: Q01DX009 (ip), vehicle: water) and 148 % of control (dose: 12.5 mg/kg/injection, schedule: Q01DX009 (ip), vehicle: water). Also, the survivor count reads like this: (dose: 50.0 mg/kg/injection, schedule: Q01DX009 (ip), vehicle: distilled water + Tween-80) 4 of 6; (dose: 100.0 mg/kg/injection, schedule: Q01DX009 (ip), vehicle: distilled water + Tween-80) 0 of 6; (dose: 200.0 mg/kg/injection, schedule: Q01DX009 (ip), vehicle: distilled water + Tween-80) 0 of 6.

As for `COc1cc(/C=N/OC(=O)Nc2ccccc2)cc(OC)c1OC`, the survivor count under setting [3] was 6 of 6.

Take `c1ccc(-c2nn(-c3ccccc3)[n+](-c3ccccc3)n2)cc1`: the survivor count (dose: 5.0 mg/kg/injection, schedule: Q01DX009 (ip), vehicle: saline with Tween-80) is on record as 4 of 6.

On to `C#CC(OC(=O)NC1CCCCC1)(c1ccccc1)c1ccccc1`, for which the T/C is, setting by setting: (dose: 50.0 mg/kg/injection, schedule: Q04DX003 (ip), vehicle: saline with Tween-80) 135 and 136 % of control; (dose: 100.0 mg/kg/injection, schedule: Q04DX003 (ip), vehicle: saline with Tween-80) 141 % of control. Also, the survivor count is, setting by setting: (dose: 75.0 mg/kg/injection, schedule: Q01DX009 (ip), vehicle: saline with Tween-80) 6 of 6; (dose: 200.0 mg/kg/injection, schedule: Q04DX003 (ip), vehicle: saline with Tween-80) 6 of 6; under setting [1], 0 of 6.

Take `CSc1nc(NC2OC(COC(C)=O)C(OC(C)=O)C(OC(C)=O)C2OC(C)=O)c(N=CC=Nc2c(NC3OC(COC(C)=O)C(OC(C)=O)C(OC(C)=O)C3OC(C)=O)nc(SC)n(C)c2=O)c(=O)n1C` (centres undefined): the survivor count (dose: 240.0 mg/kg/injection, schedule: Q01DX005 (ip), vehicle: saline with Tween-80) is given as 6 of 6.

For the molecule `O=C1OC2C(O)COC2(N=Nc2ccc(Cl)cc2)/C1=N/Nc1ccccc1` (centres undefined), the survivor count runs as follows: under setting [4], 6 of 6; under setting [5], 6 of 6.

In the case of `CC1CCC2(NC1)OC1CC3C4CCC5CC(OC6OC(CO)C(OC7OC(CO)C(O)C(OC8OCC(O)C(O)C8O)C7OC7OC(CO)C(O)C(O)C7O)C(O)C6O)CCC5(C)C4CCC3(C)C1C2C` (centres undefined), the survivor count is listed as 6 of 6 (dose: 25.0 mg/kg/injection, schedule: Q04DX003 (ip), vehicle: Klucel (hydroxypropylcellulose) (HPC)); 0 of 6 (dose: 100.0 mg/kg/injection, schedule: Q04DX003 (ip), vehicle: Klucel (hydroxypropylcellulose) (HPC)); 0 of 6 (dose: 200.0 mg/kg/injection, schedule: Q04DX003 (ip), vehicle: Klucel (hydroxypropylcellulose) (HPC)); 0 of 6 (dose: 400.0 mg/kg/injection, schedule: Q04DX003 (ip), vehicle: Klucel (hydroxypropylcellulose) (HPC)).

For the molecule `COC(=O)[C@@]12OC[C@]34[C@H]([C@@H](O)[C@@H]1O)[C@@]1(C)CC(=O)C(O)=C(C)[C@@H]1C[C@H]3OC(=O)[C@H](OC(=O)/C=C(\C)C1(C)CO1)[C@@H]24` (some centres undefined), the survivor count is, setting by setting: (dose: 0.25 mg/kg/injection, schedule: Q01DX009 (ip), vehicle: saline + alcohol) 3 of 6; (dose: 0.5 mg/kg/injection, schedule: Q01DX009 (ip), vehicle: saline + alcohol) 0 of 6; under setting [6], 6 of 6; (dose: 2.0 mg/kg/injection, schedule: Q01DX009 (ip), vehicle: saline + alcohol) 2 of 6; (dose: 4.0 mg/kg/injection, schedule: Q01DX009 (ip), vehicle: saline + alcohol) 0 of 6. Besides, under setting [6], the T/C is 126 % of control.

In the case of `CC(Nc1nncs1)Nc1nncs1`, the T/C (dose: 60.0 mg/kg/injection, schedule: Q01DX005 (ip), vehicle: saline with Tween-80) is 126 and 128 % of control.

Regarding `CC(=O)OC(C)(C)/C=C/C(=O)[C@](C)(O)[C@H]1[C@H](O)C[C@@]2(C)[C@@H]3CC=C4[C@@H](C[C@H](O)[C@H](O)C4(C)C)[C@]3(C)C(=O)C[C@]12C`, the survivor count reads like this: (dose: 40.0 mg/kg/injection, schedule: Q01DX009 (ip), vehicle: saline with Tween-80) 4 of 5; (dose: 80.0 mg/kg/injection, schedule: Q01DX009 (ip), vehicle: saline) 1 of 6; (dose: 120.0 mg/kg/injection, schedule: Q01DX009 (ip), vehicle: saline) 0 of 6; (dose: 180.0 mg/kg/injection, schedule: Q01DX009 (ip), vehicle: saline) 0 of 6; (dose: 266.0 mg/kg/injection, schedule: Q01DX009 (ip), vehicle: saline) 0 of 6.

For the molecule `CS/N=C(\c1ccccc1)N1CCOCC1`, the survivor count (dose: 240.0 mg/kg/injection, schedule: Q01DX005 (ip), vehicle: Klucel (hydroxypropylcellulose) (HPC)) is 0 of 6.

Take `CCOC(=O)Nc1nc2ccccc2n1CN1CCN(C)CC1`: under “dose: 400.0 mg/kg/injection, schedule: Q01DX005 (ip), vehicle: Klucel (hydroxypropylcellulose) (HPC)”, the survivor count was 0 of 6.

On to `Nc1ncnc2c1cnn2CCCl`, for which the survivor count under setting [3] is recorded as 6 of 6; the survivor count (dose: 100.0 mg/kg/injection, schedule: Q01DX009 (ip), vehicle: saline with Tween-80) is listed as 6 of 6; the survivor count (dose: 200.0 mg/kg/injection, schedule: Q01DX009 (ip), vehicle: saline with Tween-80) is 0 of 6.

As to `O=C1C(Cl)=C(n2c3ccccc3c3ccccc32)C(=O)c2ccccc21`, the survivor count was 3 of 6 (dose: 25.0 mg/kg/injection, schedule: Q01DX005 (ip), vehicle: saline with Tween-80); 0 of 6 under setting [4]; 0 of 6 under setting [5]; 0 of 6 (dose: 200.0 mg/kg/injection, schedule: Q01DX005 (ip), vehicle: saline with Tween-80).

For the molecule `OCCC[N+]12CCCN1CCC2`, the survivor count under setting [2] is reported as 0 of 6.

Turning to `OCCSc1c(Cl)c(Cl)c(Cl)c(Cl)c1Cl`, under setting [3], the survivor count was 6 of 6.
